US20180362994
Weaker means in comparison with the reference protein, sequence or condition of that experiment.

Test system: NtMYC2aΔN (C-terminal bHLH domain) (Nicotiana tabacum)
Assay: competition with a labelled probe
Details: 500x mutated cold competitor maintained most of the shifted signal; purified recombinant protein; protein details: GST fusion, cleaved with thrombin; variant of G2-box probe of NtQPT2 promoter

“AGTAGCTGAATCACATTTATTTATGGTTGTTGAATAGT (double strand) [mutated G2-box cold probe]”: binds more weakly.
